These are yes or no findings as the source states them, for the method shown. Binding seen in cells or lysates may run through a third protein. Some entries that bind do so weakly or less than the wild type.

By UniProt entry, the sequences of proteins in these tests, tags left out.
UniProt A0R574: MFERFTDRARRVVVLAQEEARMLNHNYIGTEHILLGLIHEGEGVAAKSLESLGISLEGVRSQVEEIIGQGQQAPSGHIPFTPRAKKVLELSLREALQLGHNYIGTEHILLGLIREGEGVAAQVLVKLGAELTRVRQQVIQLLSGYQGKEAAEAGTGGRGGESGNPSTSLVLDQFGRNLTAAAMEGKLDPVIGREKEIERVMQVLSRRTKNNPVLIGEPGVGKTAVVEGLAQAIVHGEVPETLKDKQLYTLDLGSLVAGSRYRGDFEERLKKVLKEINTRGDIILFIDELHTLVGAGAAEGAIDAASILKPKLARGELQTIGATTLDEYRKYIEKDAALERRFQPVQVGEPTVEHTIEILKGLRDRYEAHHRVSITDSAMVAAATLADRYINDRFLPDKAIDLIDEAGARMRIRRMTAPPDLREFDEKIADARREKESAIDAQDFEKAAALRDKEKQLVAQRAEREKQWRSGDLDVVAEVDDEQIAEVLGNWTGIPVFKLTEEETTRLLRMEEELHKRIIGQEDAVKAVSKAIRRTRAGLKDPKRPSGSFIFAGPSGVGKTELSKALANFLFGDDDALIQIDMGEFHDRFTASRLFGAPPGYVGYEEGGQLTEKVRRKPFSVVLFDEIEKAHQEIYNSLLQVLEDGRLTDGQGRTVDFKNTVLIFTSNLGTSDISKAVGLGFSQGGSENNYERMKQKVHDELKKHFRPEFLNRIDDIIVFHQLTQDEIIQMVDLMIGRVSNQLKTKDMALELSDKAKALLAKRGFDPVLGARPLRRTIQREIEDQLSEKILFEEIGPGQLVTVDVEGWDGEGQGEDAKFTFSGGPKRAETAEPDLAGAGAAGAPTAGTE
UniProt A0R196: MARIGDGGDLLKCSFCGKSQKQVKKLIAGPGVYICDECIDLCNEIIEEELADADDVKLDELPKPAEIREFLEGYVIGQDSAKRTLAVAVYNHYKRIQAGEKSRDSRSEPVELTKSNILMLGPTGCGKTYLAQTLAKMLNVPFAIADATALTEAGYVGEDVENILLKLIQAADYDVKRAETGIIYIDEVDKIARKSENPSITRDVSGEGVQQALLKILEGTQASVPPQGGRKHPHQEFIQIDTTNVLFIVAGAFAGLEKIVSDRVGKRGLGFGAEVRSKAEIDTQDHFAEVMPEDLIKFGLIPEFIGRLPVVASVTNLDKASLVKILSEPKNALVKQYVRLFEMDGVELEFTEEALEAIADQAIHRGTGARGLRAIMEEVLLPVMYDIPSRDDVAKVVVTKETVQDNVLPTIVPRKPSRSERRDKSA

One test concerns the target His x 6 tagged ClpC1 (UniProt A0R574). Description: pull-down; ClpC1-His or ClpX-His (pre-incubated with 1 mM ATP for 1 hr) bound to Ni-NTA resin, incubated with lysate of exponential mc2155 cells at room temperature for 30 min; washed five times with 50 mM imidazole, eluted with 500 mM imidazole; immunoblot; only the target purified.
The next test has as its target His x 6 tagged ClpX (UniProt A0R196). The test is described as above.

B1: CarD (protein, UniProt A0R561 1-162)
chain: MIFKVGDTVVYPHHGAALIEAIETRTIKGEQKEYLVLKVAQGDLTVRVPADNAEYVGVRDVVGQEGLDKVFQVLRAPHTEEPTNWSRRYKANLEKLASGDVNKVAEVVRDLWRRDQERGLSAGEKRMLAKARQILVGELALAENTDDAKAETILDEVLAAAS
On to B1, for which the binding entry with His x 6 tagged ClpC1 is given as “binds”; in the test with His x 6 tagged ClpX, “no binding”.

Values taken from PMC8820732.
